Data published in article doi:10.1101/2023.06.02.543413.
No constants are given. Whether binding was seen depends on the method and setting. Binding seen in cells or lysates may run through a third protein. Some entries that bind do so weakly or less than the wild type. For some assays here: Tags and fused reporters may be left off the sequences shown.

By UniProt entry, the sequences of proteins in these tests, tags left out.
UniProt P56524: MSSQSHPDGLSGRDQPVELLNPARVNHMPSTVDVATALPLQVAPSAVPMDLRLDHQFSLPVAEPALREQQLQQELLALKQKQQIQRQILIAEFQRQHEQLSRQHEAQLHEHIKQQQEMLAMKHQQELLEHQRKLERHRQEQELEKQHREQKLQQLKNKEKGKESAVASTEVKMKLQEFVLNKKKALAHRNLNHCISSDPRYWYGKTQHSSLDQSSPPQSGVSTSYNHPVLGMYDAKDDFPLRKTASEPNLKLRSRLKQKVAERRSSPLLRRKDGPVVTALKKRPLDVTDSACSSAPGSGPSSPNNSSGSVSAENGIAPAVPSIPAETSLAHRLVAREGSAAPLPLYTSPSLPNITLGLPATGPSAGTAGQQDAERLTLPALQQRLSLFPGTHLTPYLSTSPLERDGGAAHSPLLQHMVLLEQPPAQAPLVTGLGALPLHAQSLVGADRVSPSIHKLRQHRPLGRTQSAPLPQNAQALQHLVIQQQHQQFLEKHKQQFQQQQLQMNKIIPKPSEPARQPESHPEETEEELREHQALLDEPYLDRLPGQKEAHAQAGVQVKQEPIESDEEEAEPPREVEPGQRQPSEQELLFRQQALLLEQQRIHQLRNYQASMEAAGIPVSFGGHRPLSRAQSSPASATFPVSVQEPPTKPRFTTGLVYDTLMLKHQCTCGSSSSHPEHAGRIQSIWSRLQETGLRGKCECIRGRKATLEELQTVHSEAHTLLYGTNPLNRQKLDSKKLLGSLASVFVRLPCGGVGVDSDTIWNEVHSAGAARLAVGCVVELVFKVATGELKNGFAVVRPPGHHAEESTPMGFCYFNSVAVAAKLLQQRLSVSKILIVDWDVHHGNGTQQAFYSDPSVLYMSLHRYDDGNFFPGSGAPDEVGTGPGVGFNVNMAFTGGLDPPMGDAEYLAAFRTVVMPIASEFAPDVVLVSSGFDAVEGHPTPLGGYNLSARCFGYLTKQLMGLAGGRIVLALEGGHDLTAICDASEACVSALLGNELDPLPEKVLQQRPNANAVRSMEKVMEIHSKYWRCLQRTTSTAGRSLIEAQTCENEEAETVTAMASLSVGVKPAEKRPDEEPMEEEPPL
UniProt P62136: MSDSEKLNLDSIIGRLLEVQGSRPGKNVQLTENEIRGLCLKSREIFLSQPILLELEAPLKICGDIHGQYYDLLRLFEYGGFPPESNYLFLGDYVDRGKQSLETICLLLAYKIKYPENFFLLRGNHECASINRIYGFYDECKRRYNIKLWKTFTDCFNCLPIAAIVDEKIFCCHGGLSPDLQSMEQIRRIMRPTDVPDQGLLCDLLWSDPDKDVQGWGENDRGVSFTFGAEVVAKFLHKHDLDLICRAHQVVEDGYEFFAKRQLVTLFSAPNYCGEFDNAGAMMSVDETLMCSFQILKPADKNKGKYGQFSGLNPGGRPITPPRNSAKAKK
UniProt P36873: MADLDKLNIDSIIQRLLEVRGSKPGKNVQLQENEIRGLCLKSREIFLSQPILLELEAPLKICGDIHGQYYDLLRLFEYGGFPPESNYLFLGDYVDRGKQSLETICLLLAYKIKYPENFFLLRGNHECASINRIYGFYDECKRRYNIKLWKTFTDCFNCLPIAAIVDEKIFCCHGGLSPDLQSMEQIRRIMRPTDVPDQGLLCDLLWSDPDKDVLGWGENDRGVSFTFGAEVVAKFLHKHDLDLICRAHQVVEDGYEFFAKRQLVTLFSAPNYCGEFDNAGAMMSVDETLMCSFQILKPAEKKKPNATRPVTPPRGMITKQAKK

Columns and labels:
Assay in all cases: co-IP
[1] = biological target: T1, Flag-GSDMD (Gasdermin D, full length) (human) (UniProt P57764)
T1 sequence: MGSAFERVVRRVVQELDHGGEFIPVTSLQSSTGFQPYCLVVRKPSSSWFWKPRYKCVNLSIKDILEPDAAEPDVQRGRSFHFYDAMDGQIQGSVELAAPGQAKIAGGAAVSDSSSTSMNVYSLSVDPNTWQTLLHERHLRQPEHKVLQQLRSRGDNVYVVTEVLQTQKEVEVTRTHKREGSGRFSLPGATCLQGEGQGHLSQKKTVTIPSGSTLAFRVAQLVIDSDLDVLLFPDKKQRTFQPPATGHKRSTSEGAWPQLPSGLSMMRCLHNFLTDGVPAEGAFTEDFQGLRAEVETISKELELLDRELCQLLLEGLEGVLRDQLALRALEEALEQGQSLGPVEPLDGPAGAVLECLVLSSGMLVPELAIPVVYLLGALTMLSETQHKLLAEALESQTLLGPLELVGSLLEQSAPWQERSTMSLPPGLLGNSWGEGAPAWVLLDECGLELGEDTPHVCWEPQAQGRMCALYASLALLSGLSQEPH

Flag-HDAC4 (human) = Flag-HDAC4 (human) (UniProt P56524)
[2] = biological target: HDAC4, endogenous in THP-1 cells (human (endogenous in THP-1)) (UniProt P56524)

Molecule | binding [1] | binding (Flag-HDAC4 (human)) | binding [2]
HA-PP1α (Protein phosphatase 1 catalytic subunit alpha) (from UniProt P62136 1-330) (enzyme) | binds | binds | –
HA-PP1γ (Protein phosphatase 1 catalytic subunit gamma) (from UniProt P36873 1-323) (enzyme) | binds | binds | –
GSDMD, endogenous in THP-1 cells (protein, UniProt P57764 1-484) MGSAFERVVRRVVQELDHGGEFIPVTSLQSSTGFQPYCLVVRKPSSSWFWKPRYKCVNLSIKDILEPDAAEPDVQRGRSFHFYDAMDGQIQGSVELAAPGQAKIAGGAAVSDSSSTSMNVYSLSVDPNTWQTLLHERHLRQPEHKVLQQLRSRGDNVYVVTEVLQTQKEVEVTRTHKREGSGRFSLPGATCLQGEGQGHLSQKKTVTIPSGSTLAFRVAQLVIDSDLDVLLFPDKKQRTFQPPATGHKRSTSEGAWPQLPSGLSMMRCLHNFLTDGVPAEGAFTEDFQGLRAEVETISKELELLDRELCQLLLEGLEGVLRDQLALRALEEALEQGQSLGPVEPLDGPAGAVLECLVLSSGMLVPELAIPVVYLLGALTMLSETQHKLLAEALESQTLLGPLELVGSLLEQSAPWQERSTMSLPPGLLGNSWGEGAPAWVLLDECGLELGEDTPHVCWEPQAQGRMCALYASLALLSGLSQEPH | – | – | binds
